This note sets out measurements from PMC12521168.

Chains of the proteins cited; added tags and fusions are not shown.
UniProt P46938: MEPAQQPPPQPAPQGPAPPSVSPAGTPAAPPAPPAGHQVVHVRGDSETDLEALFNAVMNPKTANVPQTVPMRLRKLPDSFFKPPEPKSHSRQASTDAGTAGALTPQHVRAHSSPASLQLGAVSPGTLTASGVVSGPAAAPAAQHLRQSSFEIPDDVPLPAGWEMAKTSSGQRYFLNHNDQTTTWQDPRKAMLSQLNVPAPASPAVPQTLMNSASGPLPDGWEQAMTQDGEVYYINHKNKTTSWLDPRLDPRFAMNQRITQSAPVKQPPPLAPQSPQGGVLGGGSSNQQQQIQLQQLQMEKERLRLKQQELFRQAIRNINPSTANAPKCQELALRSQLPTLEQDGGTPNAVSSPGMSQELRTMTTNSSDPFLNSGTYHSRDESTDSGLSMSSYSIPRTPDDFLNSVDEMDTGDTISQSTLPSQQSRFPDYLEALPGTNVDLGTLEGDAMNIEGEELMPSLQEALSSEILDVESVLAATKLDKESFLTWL
UniProt P30051: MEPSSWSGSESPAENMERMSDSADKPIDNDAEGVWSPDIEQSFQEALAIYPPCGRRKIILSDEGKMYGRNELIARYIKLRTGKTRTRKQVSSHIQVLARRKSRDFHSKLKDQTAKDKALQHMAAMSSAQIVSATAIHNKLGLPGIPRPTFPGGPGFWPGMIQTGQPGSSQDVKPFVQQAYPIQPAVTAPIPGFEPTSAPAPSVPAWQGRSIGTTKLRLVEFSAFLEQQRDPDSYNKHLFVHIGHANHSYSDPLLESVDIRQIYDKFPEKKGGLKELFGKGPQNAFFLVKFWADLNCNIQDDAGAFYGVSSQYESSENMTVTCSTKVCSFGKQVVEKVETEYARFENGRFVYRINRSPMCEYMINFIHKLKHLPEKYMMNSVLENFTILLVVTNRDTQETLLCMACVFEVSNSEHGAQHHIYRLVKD

This experiment addresses Yes-associated protein 1 (UniProt P46938). Briefly: co-IP; whole-cell extracts prepared after transfection, incubated with the YAP1 antibody overnight at 4 °C, protein A&G beads 4 hours at 4 °C; western blot for TEAD1.

No constants are given. Whether binding was seen depends on the method and setting. Binding seen in cells or lysates may run through a third protein. Some results given as binding are weak or reduced against the parent protein; the word gives no strength.

Take TEAD1 (from UniProt P30051 1-426): the binding entry is recorded as “binds”.
